Here are results for two substances from publication PMC10423259.

Chains of the proteins cited; added tags and fusions are not shown.
UniProt O43524: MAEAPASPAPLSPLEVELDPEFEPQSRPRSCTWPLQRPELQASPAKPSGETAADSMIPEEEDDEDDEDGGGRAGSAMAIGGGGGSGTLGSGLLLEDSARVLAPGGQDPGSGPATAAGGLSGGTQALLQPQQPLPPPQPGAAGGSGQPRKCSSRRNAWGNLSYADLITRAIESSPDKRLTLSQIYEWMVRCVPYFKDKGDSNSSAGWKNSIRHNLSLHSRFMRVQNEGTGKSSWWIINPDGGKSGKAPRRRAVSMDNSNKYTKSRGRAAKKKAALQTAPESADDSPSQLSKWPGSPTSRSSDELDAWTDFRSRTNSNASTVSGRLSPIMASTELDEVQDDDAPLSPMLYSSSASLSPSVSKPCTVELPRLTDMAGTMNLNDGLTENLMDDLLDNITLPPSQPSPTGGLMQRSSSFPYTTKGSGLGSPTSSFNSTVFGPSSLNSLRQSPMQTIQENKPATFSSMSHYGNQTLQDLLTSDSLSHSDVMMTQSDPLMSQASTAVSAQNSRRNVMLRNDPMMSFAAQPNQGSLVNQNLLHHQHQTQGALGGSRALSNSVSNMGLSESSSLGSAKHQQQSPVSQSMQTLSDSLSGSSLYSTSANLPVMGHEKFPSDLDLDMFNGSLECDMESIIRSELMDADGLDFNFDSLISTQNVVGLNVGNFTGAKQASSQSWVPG
UniProt Q9NYG5: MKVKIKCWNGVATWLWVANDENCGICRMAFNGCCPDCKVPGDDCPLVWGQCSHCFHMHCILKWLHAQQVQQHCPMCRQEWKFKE

Results are given in words; binding and its absence hold for the method and conditions named. In cells and extracts the contact can be indirect. Some entries that bind do so weakly or less than the wild type.

In one experiment the target is His-labeled FOXO3 (UniProt O43524). Nature of the experiment: co-IP; IP with anti-His or IgG from T24 and UM-UC-3 cells transfected with FOXO3-His or not; Protein A/G magnetic beads, 4 °C overnight; western blot.
Experiment [1] has as its target GST-ANAPC11 fusion protein (UniProt Q9NYG5). Nature of the experiment: pull-down; GST-ANAPC11 purified on glutathione Sepharose beads, incubated with T24 or UM-UC-3 cell lysates; eluted complexes detected by Coomassie blue staining and western blotting; only the target purified. In general terms: Immunoblotting shows a protein as a band on a membrane.
Experiment [2] addresses ANAPC11 (human (endogenous in T24 and UM-UC-3)) (UniProt Q9NYG5). Nature of the experiment: co-IP; IP with anti-ANAPC11 antibody or IgG from T24 and UM-UC-3 lysates (endogenous proteins), Protein A/G magnetic beads, 4 °C overnight; western blot.

Regarding ANAPC11 (from UniProt Q9NYG5 1-84), in the experiment with His-labeled FOXO3, the binding result is reported as “binds”.

Turning to FOXO3 (from UniProt O43524 1-673), the binding entry in experiment [1] and in experiment [2] was “binds” throughout.
